From patent US6617427
Results are given in words; binding and its absence hold for the method and conditions named. For some assays here: In cells and extracts the contact can be indirect. Some results given as binding are weak or reduced against the parent protein; the word gives no strength. For some assays here: Where a sequence is shown, tags or fusion partners need not be part of it.

Experiments:
[1] = target: Raf-1, wild type (UniProt P04049); test: co-immunoprecipitation; recapitulation
[2] = target: v-raf (UniProt P00532); test: co-immunoprecipitation (data not shown)
[3] = target: Raf-1 K375M, kinase-dead (UniProt P04049); test: co-immunoprecipitation (data not shown)
[4] = target: Raf-1 Y340D, constitutively active (UniProt P04049); test: co-immunoprecipitation from transfected COS-1 cells
[5] = target: Raf-1, wild type (UniProt P04049); test: as above
[6] = target: T1, FLAG-tagged Tvl-1 (murine) (UniProt Q9Z205); test: co-immunoprecipitation of HA- and FLAG-tagged Tvl-1 from COS-1 cells
T1 sequence: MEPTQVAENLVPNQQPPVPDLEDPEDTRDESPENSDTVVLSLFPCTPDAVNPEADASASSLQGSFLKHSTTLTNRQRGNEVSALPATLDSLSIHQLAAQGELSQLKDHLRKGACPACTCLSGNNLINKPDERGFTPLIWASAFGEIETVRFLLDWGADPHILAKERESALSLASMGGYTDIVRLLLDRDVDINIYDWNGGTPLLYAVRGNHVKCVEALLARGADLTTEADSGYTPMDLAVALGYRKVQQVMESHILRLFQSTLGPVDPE

[7] = target: Raf-1, wild type (UniProt P04049); test: Raf-1 immunoprecipitation from baculovirus-infected Sf9 cells
[8] = target: LexA-Raf-1 (human) (UniProt P0A7C2+P04049); test: yeast two-hybrid (data not shown)

FLAG-tagged Tvl-1 (from UniProt Q9Z205 1-269)
binding [1]: binds | binding [2]: binds | binding [3]: binds | binding [4]: binds | binding [5]: binds

HA-tagged wild type Tvl-1 (from UniProt Q9Z205 1-269)
binding [6]: binds

Tvl-1, full length (269 amino acids, long form) (from UniProt Q9Z205 1-269)
binding [7]: binds | binding [8]: binds
